{"source": "PubChem BioAssay AID504834", "about": "(National Center for Advancing Translational Sciences (NCATS), 2011)", "note": "Hit rate of the full screen: of about 320,000 compounds, about 22,000 (6.9%) were called active. This list was built around the results that the source calls inconclusive (neither active nor inactive); the mix of calls is not that of the screen. The call rests on the fitted dose curve; in most records, active means well fitted inhibition curve with a large enough effect; inconclusive means small, poorly fitted or top-dose-only effect, or another doubt; inactive means no such curve, though single readings can be large or run the other way. Where the call is inconclusive, the potency comes from a doubtful curve fit. On the % scale 0 is the no-effect control and ±100 the full control effect; potency means the concentration at half of the fitted maximal effect."}
{"test": "Primary qHTS for delayed death inhibitors of the malarial parasite plastid, 96 hour incubation", "details": "P. falciparum luciferase reporter growth; series mostly up to 28.7 µM; activity change, negative = inhibition: at the top concentration", "procedure,_shortened": "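Two parasite generations (96 h, 37 C, 5% CO2) of compound exposure in infected erythrocytes (0.05% parasitemia, 2% hematocrit). Luciferase-reporter P. falciparum; decreased luminescence indicates inhibited growth, aimed at apicoplast-acting delayed death.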"}
{"compound": "O=C(CNc1cccc(Cl)c1)c1ccc(Br)cc1", "activity change, negative = inhibition": "inactive: 0%"}
{"compound": "CC1(C)Cc2c(sc(NC(=O)C(=O)N3CCN(CCO)CC3)c2C(N)=O)CO1", "activity change, negative = inhibition": "inactive: 37.7%"}
{"compound": "Cc1ccc(C)c(OC(=O)c2ccncc2)c1", "Potency": "inconclusive: 18.5 µM [inhibitor, single point]"}
{"compound": "COc1cc2ccccc2cc1C(=O)N1CCc2ccccc21", "Potency": "inconclusive: 11.7 µM [inhibitor, single point]"}
{"compound": "Cn1cccc1Cc1nnc(SCC(=O)NCc2ccc(F)cc2)n1-c1ccc(F)cc1", "Potency": "inconclusive: 11.7 µM [inhibitor, single point]"}
{"compound": "O=C(Nc1ccc2c(c1)CCC2)c1ccc(F)c(S(=O)(=O)N2CCOCC2)c1", "Potency": "inconclusive: 11.7 µM [inhibitor, single point]"}
{"compound": "Cc1ccc(CCNC(=O)C2CC(c3cc(C(F)(F)F)cc(C(F)(F)F)c3)=NO2)cc1", "note": "(stereo unspecified)", "Potency": "inconclusive: 0.0828 µM [inhibitor, full curve, poor fit]"}
{"compound": "O=C1CC(c2ccc(F)cc2)Sc2ccccc2N1", "note": "(stereo unspecified)", "Potency": "inconclusive: 0.0738 µM [inhibitor, full curve]"}
{"compound": "COc1ccc(OCc2cc(C(=O)NCCN3CCCc4ccccc43)no2)c(Cl)c1", "activity change, negative = inhibition": "inactive: -28.9%"}
{"compound": "CCC12CN3CCN(CC(C3)/C1=N\\NC(=O)c1ccc(F)cc1)C2", "Potency": "inconclusive: 18.5 µM [inhibitor, single point]"}
{"compound": "CCN(CC)c1ccc(/C=C/C(=O)C2C(=O)C=C(C)OC2=O)cc1", "note": "(stereo unspecified)", "activity change, negative = inhibition": "inactive: 2.35%"}
{"compound": "Cc1cc(NS(=O)(=O)c2ccc(NC(=O)/C=C/c3ccccc3Cl)cc2)no1", "activity change, negative = inhibition": "inactive: 48.3%"}
{"compound": "Cc1nn(CC(=O)NCCc2cccs2)c(=O)c2nn(-c3ccccc3)c(C)c12", "Potency": "inconclusive: 10.4 µM [inhibitor, partial curve]"}
{"compound": "Cc1cc(C)cc(N2C(=O)CSC2c2cccs2)c1", "note": "(stereo unspecified)", "activity change, negative = inhibition": "inactive: 39.2%"}
{"compound": "CC(=O)c1ccc(N2CCN(C(=O)Cn3c(=S)[nH]c4ncccc4c3=O)CC2)cc1", "Potency": "inconclusive: 11.7 µM [inhibitor, partial curve, poor fit]"}
{"compound": "COc1ccc(/C=C/C(=O)c2sc(-c3ccccc3)nc2C)cc1", "activity change, negative = inhibition": "inactive: -13.4%"}
{"compound": "CSc1ncc(C(=O)Nc2ccc(C)cc2C)c(C)n1", "Potency": "inconclusive: 18.5 µM [inhibitor, single point]"}
{"compound": "COc1ccc(CCNC(=O)C(=O)NCC2OCCN2S(=O)(=O)c2ccc(OC)cc2)cc1", "note": "(stereo unspecified)", "Potency": "inconclusive: 14.7 µM [inhibitor, single point]"}
{"compound": "OCC1(Cc2cccc(C(F)(F)F)c2)CCN(Cc2cc(F)cc(F)c2)CC1", "Potency": "inconclusive: 0.586 µM [inhibitor, partial curve, poor fit]"}
{"compound": "CC(C)CCNC(=O)C(c1ccco1)N(CC1CCCO1)C(=O)Cn1nnc2ccccc21", "note": "(stereo unspecified)", "activity change, negative = inhibition": "inactive: -17.5%"}
{"compound": "COc1ccc(CCNC(=S)NC2CCN(Cc3ccccc3)CC2)cc1OC", "Potency": "inconclusive: 0.0928 µM [inhibitor, full curve, poor fit]"}
{"compound": "Cc1nc2ccccc2n1C1CCN(C(=O)Nc2ccccc2)CC1", "activity change, negative = inhibition": "inactive: 17.1%"}
{"compound": "CCOC(=O)c1sc(NC(=O)c2ccco2)nc1C", "Potency": "inconclusive: 18.5 µM [inhibitor, single point]"}
{"compound": "COC(=O)c1c(-n2c(C)cc(C=O)c2C)sc2c1CCCC2", "Potency": "inconclusive: 0.0147 µM [inhibitor, full curve]"}
{"compound": "CCOC(=O)C1=C(CSc2nc(-c3ccccc3)ccc2C#N)OC(N)=C(C#N)C1c1ccccc1", "note": "(stereo unspecified)", "Potency": "inconclusive: 18.5 µM [inhibitor, single point]"}
{"compound": "C=CCN1C(=O)/C(=C/c2ccc(OC)cc2)S/C1=N/c1nccs1", "Potency": "active: 11.7 µM"}
{"compound": "COc1ccc(C(=O)C(OC(=O)CNC(=O)c2ccco2)c2ccccc2)cc1", "note": "(stereo unspecified)", "activity change, negative = inhibition": "inactive: -17.5%"}
{"compound": "C[C@@H](C(=O)N[C@@H](Cc1c[nH]c2ccccc12)C(=O)O)n1nnc2ccccc2c1=O", "Potency": "inconclusive: 18.5 µM [inhibitor, single point]"}
{"compound": "COc1ccc(N(C(=O)C(C)C)S(=O)(=O)c2cccc3cccnc23)cc1", "activity change, negative = inhibition": "inactive: -28.8%"}
{"compound": "CCNC(=S)Nc1sc2c(c1C#N)CCC(C)C2", "note": "(stereo unspecified)", "Potency": "active: 5.86 µM"}
{"compound": "O=C(NCC1OCCc2ccccc21)c1cc(COc2c(F)cccc2F)on1", "note": "(stereo unspecified)", "Potency": "active: 13.1 µM"}
{"compound": "Cc1ccc(NC(=O)Cn2c(=O)oc3ccccc32)c(C)c1", "Potency": "inconclusive: 18.5 µM [inhibitor, single point]"}
{"compound": "O=C(COc1coc(CN2CCc3ccccc32)cc1=O)NCCc1ccccc1", "Potency": "inconclusive: 10.4 µM [inhibitor, single point]"}
{"compound": "Cc1ccc(N(CC(=O)NC2CCCCC2)S(=O)(=O)c2c(C)noc2C)cc1", "activity change, negative = inhibition": "inactive: 43.3%"}
{"compound": "CCOC(=O)N1CCC(NC(=O)CCS(=O)(=O)c2ccc3c(c2)CCN3C(C)=O)CC1", "Potency": "inconclusive: 13.1 µM [inhibitor, single point]"}
{"compound": "O=C(CCC(=O)NCc1ccccc1)NCc1ccccc1", "activity change, negative = inhibition": "inactive: 13.3%"}
{"compound": "O=C(NC1CCCN(Cc2ccc(Cl)cc2)C1)c1c(F)cccc1F", "note": "(stereo unspecified)", "Potency": "inconclusive: 10.4 µM [inhibitor, single point]"}
{"compound": "Cc1sc(NC(=O)CSc2nnc(COc3ccccc3)n2C)c(C#N)c1C", "Potency": "inconclusive: 10.4 µM [inhibitor, partial curve]"}
{"compound": "C#CCNC(=O)/C=C/c1ccc(OC)cc1", "activity change, negative = inhibition": "inactive: 124%"}
{"compound": "Cc1nc2cc(NC(=O)c3ccc(S(=O)(=O)N(C)c4ccccc4)cc3)ccc2o1", "Potency": "inconclusive: 11.7 µM [inhibitor, single point]"}
{"compound": "O=C(COc1ccc(Br)cc1)NCCN1CCCC1", "Potency": "inconclusive: 13.1 µM [inhibitor, single point]"}
{"compound": "O=C(CSc1nc2nc3c(cc2c(=O)n1-c1ccccc1)CCCC3)Nc1cccc2ccccc12", "Potency": "active: 5.86 µM"}
{"compound": "Cc1cc(=O)[nH]c(SCC(=O)Nc2c(C)n(C)n(-c3ccccc3)c2=O)c1C#N", "activity change, negative = inhibition": "inactive: -11.6%"}
{"compound": "CC1CCCCN1CCNC(=O)C1CCCN(S(=O)(=O)c2cccc3nsnc23)C1", "note": "(stereo unspecified)", "activity change, negative = inhibition": "inactive: 10.6%"}
{"compound": "COc1ccc(CC(=O)N/N=C/C=C/c2cccc([N+](=O)[O-])c2)cc1OC", "Potency": "inconclusive: 0.738 µM [inhibitor, partial curve, poor fit]"}
{"compound": "Cc1cc(C)c(S(=O)(=O)NCc2csc(C)n2)c(C)c1", "Potency": "inconclusive: 1.47 µM [inhibitor, full curve]"}
